{
  "source": "PubChem BioAssay AID1347075",
  "about": "(National Center for Advancing Translational Sciences (NCATS), 2019)",
  "note": "Hit rate of the full screen: of about 400,000 compounds, about 5,500 (1.4%) were called active. Inconclusive results, whose numbers are uncertain, are shown with a selection of clear calls. Calls come from the whole dose curve; as a rule, active = well fitted cell-killing curve with a large enough effect; inconclusive = small, poorly fitted or top-dose-only effect, or effect the other way; inactive = flat fitted curve, though single readings scatter. Potencies beside an inconclusive call are fits to weak or partial responses and may not hold up.",
  "data": [
    {"assay": "qHTS assay for MDR1-selective chemotherapeutics: Primary screen using the parental adenocarcinoma cell KB-3-1; note: nearly all actives have a fitted effect of over 60% in size; note: potency is the fitted concentration of half-maximal effect; for activity change, negative = cytotoxic: % is set by controls: 0 for no effect and ±100 for the full control effect", "conditions": "KB-3-1 viability, CellTiter-Glo ATP luminescence, 72 h; activity change, negative = cytotoxic: at 46.1 µM (top of the series)", "method_in_brief": "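KB-3-1 parental drug-naive adenocarcinoma cells in DMEM/10% FBS, incubated 72 h at 37 C with pin-transferred compounds across a concentration series. Viability by CellTiter-Glo luminescence; concentration-response curves fitted after normalization.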", "values": [
      {"molecule": "CC(C)c1ccc(C2c3c(oc4ccc(Cl)cc4c3=O)C(=O)N2CCCN2CCOCC2)cc1", "note": "(stereo not given)", "Potency": "inconclusive: 29.1 µM [cytotoxic, single point]"},
      {"molecule": "COc1ccc(C(=O)NCc2c(C)nn(Cc3ccccc3)c2C)cc1S(=O)(=O)N1CCOCC1", "Potency": "active: 6.51 µM"},
      {"molecule": "CCC(C)N(C(=O)CSc1nc(C)nc2ccccc12)C1CCS(=O)(=O)C1", "note": "(stereo not given)", "activity change, negative = cytotoxic": "inactive: 3.7%"},
      {"molecule": "CCCCCc1ccc(OCCCC[n+]2cccc(C)c2)c(CCCCC)c1", "Potency": "active: 9.2 µM"},
      {"molecule": "COCCN(C(=O)COc1ccc(Cl)cc1)c1nnc(-c2cccnc2)s1", "activity change, negative = cytotoxic": "inactive: 9.6%"},
      {"molecule": "Cc1ccccc1CSCCNC(=O)C1CCN(S(=O)(=O)Cc2ccccc2)CC1", "activity change, negative = cytotoxic": "inactive: 5.62%"},
      {"molecule": "Cc1ccc(Cn2cnc3c(cnn3C(C)(C)C)c2=O)cc1", "activity change, negative = cytotoxic": "inactive: -20.6%"},
      {"molecule": "COc1ccc(-c2cc(C(=O)Nc3ccccc3N3CCOCC3)c3ccccc3n2)cc1OC", "Potency": "inconclusive: 29.1 µM [cytotoxic, single point]"},
      {"molecule": "O=C1c2ccc3c4c(ccc(c24)C(=O)N1c1cccc(O)c1)C(=O)N(c1cccc(O)c1)C3=O", "Potency": "active: 16.4 µM"},
      {"molecule": "O=C(C[C@H]1C(=O)N(C2CCCCC2)C[C@@H]1Cc1ccccc1)Nc1ccccc1", "Potency": "inconclusive: 23.1 µM [cytotoxic, single point]"},
      {"molecule": "Cc1ccc2nc(-c3ccccc3)cc(C(=O)N(C)CC(=O)Nc3ccccc3Br)c2c1", "Potency": "inconclusive: 25.9 µM [cytotoxic, single point]"},
      {"molecule": "Nc1c(C(=O)Nc2cccc(F)c2)sc2nc(-c3cccs3)ccc12", "activity change, negative = cytotoxic": "inactive: 1.63%"},
      {"molecule": "Cc1cccc(C(=O)Nc2ccc(C(=O)/C=C/c3ccncc3)cc2)c1", "Potency": "inconclusive: 29.1 µM [cytotoxic, single point]"},
      {"molecule": "CC[C@]1(c2ccccc2OC)ON(c2ccccc2C(F)(F)F)C1=O", "Potency": "active: 23.1 µM"},
      {"molecule": "Cc1cccc(C(=O)N2CCCC(CCC(=O)N3CCN(c4ccccn4)CC3)C2)c1C", "note": "(stereo not given)", "activity change, negative = cytotoxic": "inactive: -22.5%"},
      {"molecule": "C[n+]1ccc(/C=C/c2c[nH]c3ccccc23)cc1", "Potency": "active: 1.16 µM"},
      {"molecule": "Cc1cc(C)nc(NS(=O)(=O)c2ccc(NC(=O)c3cc(=O)c4ccc(C)c(C)c4o3)cc2)n1", "activity change, negative = cytotoxic": "inactive: -0.0966%"},
      {"molecule": "CN(C)C(=O)CCCCCCCCC(=O)N(C)C", "activity change, negative = cytotoxic": "inactive: 6.73%"},
      {"molecule": "O=C1/C(=C\\c2ccc(Cl)c(Cl)c2)CN(C(=O)CCN2CCOCC2)C/C1=C/c1ccc(Cl)c(Cl)c1", "Potency": "active: 3.66 µM"},
      {"molecule": "COc1cc(NS(=O)(=O)c2ccc3[nH]c4c(c3c2)CCCC4)cc(OC)c1OC", "Potency": "active: 0.0651 µM"},
      {"molecule": "COc1cc(CN2CCc3ccccc3C2)cc([N+](=O)[O-])c1O", "activity change, negative = cytotoxic": "inactive: 6.19%"},
      {"molecule": "CCOC(=O)c1nn(-c2ccc(F)cc2)c(-c2ccccc2)c1C(=O)c1ccccc1", "Potency": "inconclusive: 29.1 µM [cytotoxic, single point]"},
      {"molecule": "CCNc1ccc(S(=O)(=O)N(C)C)cc1NCC(=O)Nc1ccc(F)c(Cl)c1", "Potency": "inconclusive: 18.4 µM [cytotoxic, single point]"},
      {"molecule": "Cc1ccc(S(=O)(=O)c2cc3cc(Br)ccc3oc2=O)cc1", "Potency": "active: 20.6 µM"},
      {"molecule": "O=C(N/N=C/c1sc(N2CCOCC2)nc1-c1ccccc1)c1ccccc1O", "Potency": "inconclusive: 29.1 µM [cytotoxic, single point]"},
      {"molecule": "Cc1ccc(Nc2c(-c3ccc(N4CCOCC4)cc3)nc3c(C)cccn23)cc1", "activity change, negative = cytotoxic": "inactive: -3.58%"},
      {"molecule": "O=C(Nc1nc(-c2cccs2)cs1)c1ccc(Cl)s1", "Potency": "inconclusive: 16.4 µM [cytotoxic, single point]"},
      {"molecule": "CCCCCc1nnc(NC(=O)Cn2cnc3ccccc3c2=O)s1", "Potency": "inconclusive: 18.4 µM [rising, single point]"},
      {"molecule": "COc1ccc(CC(=O)Nc2ccc3nc(Nc4cccc(Cl)c4)cc(C)c3c2)cc1", "Potency": "inconclusive: 20.6 µM [cytotoxic, single point]"},
      {"molecule": "Cc1c(Cl)cccc1NC(=O)c1ccco1", "Potency": "inconclusive: 3.66 µM [rising, partial curve]"},
      {"molecule": "O=C(Nc1nc(-c2ccc(Cl)s2)cs1)c1ccncc1", "Potency": "inconclusive: 29.1 µM [cytotoxic, single point]"},
      {"molecule": "Cc1ccc(C(=O)N2CCN(c3ccc(NC(=S)NC(=O)c4cccs4)cc3)CC2)cc1", "Potency": "inconclusive: 36.6 µM [cytotoxic, partial curve, poor fit]"},
      {"molecule": "CCOc1ccccc1CNC(=O)C1Cc2cc(S(=O)(=O)N3CCCCC3)ccc2N1C(C)=O", "note": "(stereo not given)", "Potency": "inconclusive: 2.91 µM [cytotoxic, full curve]"},
      {"molecule": "CCc1ccccc1NC(=O)C1COc2ccccc2O1", "note": "(stereo not given)", "Potency": "inconclusive: 32.6 µM [rising, partial curve, poor fit]"},
      {"molecule": "CC(C)C[C@H]1CNC(=S)N1C[C@H]1CCCN1C[C@H](Cc1ccc(O)cc1)N1C[C@H](CC(C)C)N(CCc2ccccc2)C1=S", "Potency": "inconclusive: 29.1 µM [cytotoxic, single point]"},
      {"molecule": "CC(C)Cc1ccc(S(=O)(=O)Nc2cccnc2)cc1", "activity change, negative = cytotoxic": "inactive: -4.56%"},
      {"molecule": "CCCCCN1C(C(=O)c2ccccc2)=C(OC(=O)CC)c2ccccc2S1(=O)=O", "Potency": "inconclusive: 4.11 µM [cytotoxic, full curve]"},
      {"molecule": "COC(=O)c1ccccc1NC(=O)NCc1ccccn1", "Potency": "inconclusive: 29.1 µM [rising, partial curve, poor fit]"},
      {"molecule": "COc1ccc2oc(/C=C/N(C)C)c(C(=O)c3ccc(Cl)cc3)c2c1", "activity change, negative = cytotoxic": "inactive: -4.65%"},
      {"molecule": "CCOC(=O)Cn1c(CN2CCN(C(=O)c3ccco3)CC2)nc2c1c(=O)n(C)c(=O)n2C", "activity change, negative = cytotoxic": "inactive: 4.28%"},
      {"molecule": "CC1=NN(c2ccccc2)C(=O)C1C=Nc1ccccc1O", "note": "(stereo not given)", "Potency": "inconclusive: 16.4 µM [cytotoxic, single point]"},
      {"molecule": "N#Cc1cc2c(=O)n3ccccc3nc2n(-c2nnc(SCc3ccccc3Cl)s2)c1=O", "activity change, negative = cytotoxic": "inactive: 14.1%"},
      {"molecule": "COc1ccc(OC)c(NC(=O)CCN2CCN(CCO)CC2)c1", "activity change, negative = cytotoxic": "inactive: 0.478%"},
      {"molecule": "CCCNC(=O)C1(C)CCN(C(=O)C2(c3ccc(Cl)cc3)CCCC2)C1", "note": "(stereo not given)", "activity change, negative = cytotoxic": "inactive: 0%"},
      {"molecule": "Cn1c(=O)c(/C(N)=N/OC(=O)c2ccccc2)cn(-c2ccccc2)c1=O", "Potency": "inconclusive: 2.31 µM [cytotoxic, partial curve, poor fit]"},
      {"molecule": "CCCNC(=O)C1(C)CCN(Cc2ccc(-c3ccccn3)cc2)C1", "note": "(stereo not given)", "activity change, negative = cytotoxic": "inactive: -0.0231%"},
      {"molecule": "O=C(NCCO)c1ccc2nc(-c3ccco3)c(-c3ccco3)nc2c1", "activity change, negative = cytotoxic": "inactive: -1.58%"},
      {"molecule": "CC(=O)c1cccc(NC(=O)COC(=O)Cn2cnc3ccccc32)c1", "Potency": "inconclusive: 29.1 µM [rising, single point]"},
      {"molecule": "COc1cc(/C=C2/CCc3ccccc3C2=O)cc(OC)c1OC", "Potency": "inconclusive: 16.4 µM [cytotoxic, single point]"},
      {"molecule": "CC(C)(C)S(=O)(=O)N1Cc2ccc(CO)cc2[C@H]1CCO", "activity change, negative = cytotoxic": "inactive: 0%"},
      {"molecule": "Nc1ccc(C(=O)N/N=C\\c2cc(N=Nc3cccc4ccccc34)ccc2O)cc1", "Potency": "inconclusive: 7.31 µM [cytotoxic, partial curve]"},
      {"molecule": "CC(C)(C)c1ccc(C(=O)OCCN2CCCCC2)cc1", "activity change, negative = cytotoxic": "inactive: 4.31%"},
      {"molecule": "CCOc1ccccc1N1CCN(C(=O)c2cc3ccccc3cc2OC)CC1", "Potency": "active: 3.66 µM"},
      {"molecule": "NCCc1c(C(=O)O)[nH]c2ccc([N+](=O)[O-])cc12", "Potency": "inconclusive: 29.1 µM [cytotoxic, single point]"},
      {"molecule": "O=C1C(Cl)=C(Nc2ccc(O)cc2)C(=O)c2ccccc21", "Potency": "inconclusive: 29.1 µM [cytotoxic, single point]"},
      {"molecule": "COC(=O)[C@@]12C[C@@H](CC(=O)N3CCN(C(=O)C4CC4)CC3)C(=O)N(Cc3ccc4c(c3)OCO4)C1=CCC(C)(C)C2", "Potency": "inconclusive: 3.26 µM [cytotoxic, partial curve, poor fit]"},
      {"molecule": "COc1cc(C#Cc2c(C=O)n(C)c3ccccc23)cc(OC)c1", "Potency": "inconclusive: 29.1 µM [cytotoxic, single point]"},
      {"molecule": "CCCN1C(=O)S/C(=C\\c2ccc(N3CCOCC3)o2)C1=O", "Potency": "inconclusive: 29.1 µM [cytotoxic, single point]"},
      {"molecule": "CCOC(=O)C1=CC[C@@H](c2ccccc2Cl)N(S(=O)(=O)c2ccc(C)cc2)[C@H]1C(=O)OCC", "Potency": "inconclusive: 8.2 µM [cytotoxic, partial curve, poor fit]"},
      {"molecule": "Cc1cc(C(=O)COc2ccc(C#N)cc2)c(C)n1-c1ccc2c(c1)OCO2", "Potency": "inconclusive: 0.731 µM [cytotoxic, partial curve]"},
      {"molecule": "CC(C)(C)OC(=O)NCc1ccc(CNC(=O)c2[nH]cnc2C(=O)Nc2ccccc2F)cc1", "Potency": "inconclusive: 32.6 µM [cytotoxic, single point]"},
      {"molecule": "Cc1cc(NC(=O)CCN2C(=O)C3C4CCC(C4)C3C2=O)cc(C)c1Br", "note": "(stereo not given)", "Potency": "inconclusive: 32.6 µM [cytotoxic, single point]"},
      {"molecule": "CCN1CCCc2cc(CN(CCN3CCOCC3)C(=O)Nc3ccc(C)c(C)c3)ccc21", "activity change, negative = cytotoxic": "inactive: -14.5%"},
      {"molecule": "Cn1c(=O)c(/C=C/c2ccc(F)cc2)nc2ccccc21", "Potency": "inconclusive: 29.1 µM [cytotoxic, single point]"},
      {"molecule": "O=C(NCc1cccc(C(F)(F)F)c1)c1cc(-c2ccccc2)nn1CC1CC(c2cccnc2)=NO1", "note": "(stereo not given)", "Potency": "inconclusive: 29.1 µM [cytotoxic, single point]"},
      {"molecule": "COc1ccccc1N1CCN(C(=O)c2ccc3ncsc3c2)CC1", "Potency": "active: 5.17 µM"},
      {"molecule": "Fc1ccc(-c2nnc(SCc3ncc(-c4ccccc4)o3)n2CC2CCCO2)cc1", "note": "(stereo not given)", "activity change, negative = cytotoxic": "inactive: 0.798%"},
      {"molecule": "O=C(OCC(=O)N1CCc2ccccc21)c1c2c(nc3ccccc13)CCCCC2", "Potency": "inconclusive: 20.6 µM [cytotoxic, single point]"},
      {"molecule": "Cc1ccccc1/C=C/C(=O)c1ccc([N+](=O)[O-])o1", "Potency": "inconclusive: 2.91 µM [cytotoxic, partial curve, poor fit]"},
      {"molecule": "COc1ccc(CCNC(=O)c2cc(=O)c3cc(C)c(C)cc3o2)cc1OC", "Potency": "inconclusive: 23.1 µM [cytotoxic, partial curve, poor fit]"}
    ]}
  ]
}
